One experiment concerns the target T1, WLP3-nCFP (rice) (UniProt Q8SAY0).
T1 sequence: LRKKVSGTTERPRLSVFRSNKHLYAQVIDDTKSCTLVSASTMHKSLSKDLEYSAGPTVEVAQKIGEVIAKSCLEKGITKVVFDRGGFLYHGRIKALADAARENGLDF
The experiment can be described thus: split reporter; BiFC: WLP3 constructs on nCFP and ribosomal proteins on cCFP, transiently co-expressed in tobacco leaf epidermal cells by Agrobacterium EHA105; confocal imaging 24-48 h after co-transformation.

Experiment [1] deals with T2, WLP3-C (51-170aa) on nCFP (rice) (UniProt Q8SAY0).
T2 sequence: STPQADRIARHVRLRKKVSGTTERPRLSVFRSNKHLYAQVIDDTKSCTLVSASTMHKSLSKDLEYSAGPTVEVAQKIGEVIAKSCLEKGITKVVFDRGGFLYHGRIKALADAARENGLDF
Described as above.

Experiment [2] concerns the target T3, WLP3 (chloroplast ribosomal protein L18), full-length coding region in pGBKT7 (rice) (UniProt Q8SAY0).
T3 sequence: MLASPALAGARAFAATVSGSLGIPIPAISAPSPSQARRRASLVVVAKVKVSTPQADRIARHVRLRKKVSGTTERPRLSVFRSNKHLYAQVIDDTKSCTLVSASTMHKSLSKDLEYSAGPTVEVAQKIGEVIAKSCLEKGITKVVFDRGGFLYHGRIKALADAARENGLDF
The experiment can be described thus: two-hybrid; WLP3 in pGBKT7 (bait), ribosomal proteins in pGADT7 (prey), yeast strain AH109; growth on triple and quadruple dropout plates (SD/-Leu/-Trp/-His/-Ade).

These are yes or no findings as the source states them, for the method shown. Binding can be weak; no strength is given. For part of these data: Binding seen in cells or lysates may run through a third protein. For part of these data: Where a sequence is shown, tags or fusion partners need not be part of it.

cCFP-RPS6: the binding entry (in the experiment with WLP3-nCFP (rice); in experiment [1]) was “binds” in each case. As for cCFP-ASL2 (rice), the binding result (with WLP3-nCFP (rice); in experiment [1]) was “binds” each time. For “RPL4, full-length coding sequence in pGADT7”, in experiment [2], the binding result is recorded as “binds”. Regarding “ASL2 (PRPL21), full-length coding sequence in pGADT7 (rice)”, the binding entry in experiment [2] is “binds”. As for cCFP-RPL5, the binding result (with WLP3-nCFP (rice); in experiment [1]) was “binds” in each case.

As for cCFP-RPL4, the binding result (in the experiment with WLP3-nCFP (rice); in experiment [1]) was “binds” throughout. Take “WGL2 (PRPS9), full-length coding sequence in pGADT7 (rice)”: in experiment [2], the binding entry is “binds”.

For “RPL9, full-length coding sequence in pGADT7”, in experiment [2], the binding result is listed as “binds weakly”. In the case of cCFP-RPL9, the binding result (with WLP3-nCFP (rice); in experiment [1]) was “binds” in each case. On to cCFP-WGL2 (rice), for which the binding entry (with WLP3-nCFP (rice); in experiment [1]) was “binds” each time.

Consider “RPL5, full-length coding sequence in pGADT7”, for which, in experiment [2], the binding result is “binds”. For “RPS6, full-length coding sequence in pGADT7”, the binding entry in experiment [2] is listed as “binds”.

The record behind these values is paper PMC10719208.
